Laboratory results as given in PubChem BioAssay AID662 (National Center for Advancing Translational Sciences (NCATS), 2007).
Where “and” joins values, the source holds several entries; their conditions need not be identical. Equal entries are not always repeated. This is one part of the list. The main result of the screen is listed elsewhere. These columns were measured beside it and carry no call. Compounds called inactive in the main read-out are mostly missing here. Words in brackets tell the shape of the fitted curve; partial curves, single points and poor fits give uncertain potencies.

Test: Cell signaling CRE-BLA (Fsk stim)
Settings: CHO CRE-bla reporter (cAMP response element driving beta-lactamase), forskolin EC10, beta-lactamase ratio; measured here: 460 nm blue channel
Outline: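 CRE-bla CHO cells stimulated with EC10 NKH 477 (water-soluble forskolin) and compound titrations, 3 h at 37C; beta-lactamase read with CCF4 after 2 h at room temperature. Activity from 460/530 nm emission ratio, AC50 values for positive or negative modulation.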

| SMILES | AC50 |
| --- | --- |
| c1ccc(CN2CCC3(CCNCC3)CC2)cc1 | 25.1 µM [rising, single point] |
| [O]=[Cr](=[O])([OH])[O][Cr](=[O])(=[O])[OH] | 1 µM [falling, full curve, poor fit] |
| CCC(=Nc1ccc(OC)cc1OC)c1c(O)[nH]c(=O)[nH]c1=O | 12.6 µM [rising, partial curve] |
| O=C(Cn1ncc2c3ccccc3n(Cc3ccc(F)cc3)c2c1=O)N1CCC2(CC1)OCCO2 | 0.1 µM [falling, full curve] |
| COc1ccc2[nH]cc(CCN)c2c1 | 10 µM [falling, partial curve] |
| CNc1ccc2oc(C[C@@H]3O[C@@]4(CC[C@H]3C)O[C@@H]([C@@H](C)C(=O)c3ccc[nH]3)[C@@H](C)C[C@H]4C)nc2c1C(=O)O | 0.1 µM [rising, full curve, poor fit] |
| O=C1CC(C(=O)N2CCC3(CC2)OCCO3)CN1CCc1ccccc1 (stereo unspecified) | 0.0501 µM [falling, full curve, poor fit] |
| C=CCn1c(O)c(C(=O)CCCCCC)c(=O)[nH]c1=O | 12.6 µM [falling, single point] |
| O=C(O)/C=C\c1ccc[c]([Sb](=[O])([OH])[OH])c1 | 2 µM [rising, partial curve] |
| O=c1[nH]c(=O)n(C2CCCCC2)c(O)c1C1NCCc2ccccc21 (stereo unspecified) | 10 µM [falling, partial curve] |
| CC(=NCCCN1CCOCC1)c1c(O)n(-c2ccccc2C)c(=O)[nH]c1=O | 10 µM [falling, partial curve] |
| C[C@@H]1CC[C@@]2(OC1)O[C@H]1[C@@H](O)[C@H]3[C@@H]4CC[C@H]5C[C@@H](O[C@@H]6O[C@H](CO)[C@H](O[C@@H]7O[C@H](CO)[C@@H](O)[C@H](O[C@@H]8OC[C@@H](O)[C@H](O)[C@H]8O)[C@H]7O[C@@H]7O[C@H](CO)[C@@H](O)[C@H](O[C@@H]8O[C@H](CO)[C@@H](O)[C@H](O)[C@H]8O)[C@H]7O)[C@H](O)[C@H]6O)[C@H](O)C[C@]5(C)[C@H]4CC[C@]3(C)[C@H]1[C@@H]2C | 0.794 µM [falling, full curve] |
| Cc1ccc2c(c1)CC1(CN2C)C(=O)NC(=O)N(c2cccc(C)c2C)C1=O (stereo unspecified) | 1.58 µM [falling, full curve, poor fit] |
| O=C1C=C2C=C[C@H]3C[C@@]2(O1)[C@H]1CCCCN31 | 10 µM [falling, partial curve] and 10 µM [falling, partial curve, poor fit] |
| O=S1OCC2C(CO1)C1(Cl)C(Cl)=C(Cl)C2(Cl)C1(Cl)Cl (stereo unspecified) | 15.8 µM [rising, partial curve] |
| O=C(Nc1ccccc1OC(=O)N1CCCCC1)N1CCCCC1 | 0.00316 µM [falling, full curve, poor fit] |
| CNP1(NC)=Nc2nn(-c3ccccc3)c(N)c2C(c2ccccc2)=N1 | 5.01 µM [falling, single point] |
| C[n+]1c(/C=C\c2ccc(O)c3ncccc23)[se]c2ccccc21 | 3.98 µM [rising, single point] |
| Cc1o[nH]c(=O)c1C[C@H](N)C(=O)O | 12.6 µM [rising, single point] |
| CC(=NCCC1=CCCCC1)c1c(O)n(C)c(=O)n(C)c1=O | 20 µM [rising, single point] |
| COc1cc(-c2ccc(N)c(OC)c2)ccc1N | 25.1 µM [rising, partial curve] |

| SMILES | AC50 |
| --- | --- |
| CC(C)OC(=O)Cc1ccccc1 | 1 µM [falling, full curve, poor fit] |
| CCCCn1c(N)c(C(=O)OCC2CCCO2)c2nc3ccccc3nc21 (stereo unspecified) | 3.98 µM [rising, partial curve] |
| CC(=NCc1ccc(F)cc1)c1c(O)n(C)c(=O)n(C)c1=O | 6.31 µM [rising, partial curve] |
| FC(F)(F)c1ccc2c(c1)NP(=S)(N1CCOCC1)c1nccn1-2 (stereo unspecified) | 25.1 µM [rising, single point] |
| Cc1nc(-c2ccc(-c3ccc(C(=O)N4CCc5cc6c(cc54)C4(CCN(C)CC4)CO6)cc3)c(C)c2)no1 | 0.251 µM [rising, full curve, poor fit] |
| NNc1c(C(N)=O)c2c(N)ncnc2n1[C@@H]1O[C@H](CO)[C@@H](O)[C@@H]1O | 0.00631 µM [falling, full curve] |
| c1ccc(N2CCC3(CCNCC3)CC2)nc1 | 3.98 µM [falling, partial curve] |
| CCOC(=O)c1c(N)n(Cc2ccco2)c2nc3ccccc3nc12 | 10 µM [rising, partial curve] |
| CCC(C)NC(=O)c1c(N)n(CCCOC)c2nc3ccccc3nc12 (stereo unspecified) | 10 µM [rising, partial curve] |
| CCOC(=O)C1C(=O)NC2(C)CC1c1cc(OC)ccc1O2 (stereo unspecified) | 0.0794 µM [falling, full curve, poor fit] |
| COc1ccc(C2=NCC(=O)N(CC(=O)NCc3ccco3)c3sc4c(c32)CCCC4)cc1 | 0.398 µM [falling, partial curve, poor fit] |
| O=[N+]([O-])c1c(Cl)c(Cl)c(Cl)c(Cl)c1Cl | 31.6 µM [falling, single point] |
| CCCCCCCCCOc1ccc2[nH]cc(CCN)c2c1 | 31.6 µM [falling, single point] |
| FC(F)(F)c1ccc2c(c1)nnn2C1CCN(Cc2nnnn2Cc2ccccc2)CC1 | 12.6 µM [rising, single point] |
| Clc1ccc(COC(Cn2ccnc2)c2ccc(Cl)cc2Cl)cc1 (stereo unspecified) | 25.1 µM [falling, partial curve] |
| CN1CCN(C(=O)COc2ccc3ccccc3c2Br)CC1 | 2.51 µM [rising, partial curve] |
| Cc1ccc2c(c1)C1CN(C)CCC1N2C(=O)Cn1cnc2c1c(=O)n(C)c(=O)n2C (stereo unspecified) | 3.16 µM [falling, partial curve] |
| O=C1C2CC=CCC2C(=O)N1SC(Cl)(Cl)Cl (stereo unspecified) | 2.51 µM [falling, full curve] and 3.16 µM [falling, full curve] |
| CCCCN1CCC(C#N)(Nc2ccccc2)CC1 | 3.16 µM [rising, single point] |
| CCCCn1c(N)c(C(=O)NCCN2CCOCC2)c2nc3ccccc3nc21 | 12.6 µM [rising, partial curve] |
| Cc1ccc2c(c1N)C(=O)c1ccccc1C2=O | 10 µM [rising, full curve] |

As entered above:
`CCOC(=O)c1c(N)n(Cc2ccco2)c2nc3ccccc3nc12` – AC50: 10 µM [rising, partial curve]
`C=CCn1c(O)c(C(=O)CCCCCC)c(=O)[nH]c1=O` – AC50: 12.6 µM [falling, single point]
`CC(=NCCCN1CCOCC1)c1c(O)n(-c2ccccc2C)c(=O)[nH]c1=O` – AC50: 10 µM [falling, partial curve]
`CC(C)OC(=O)Cc1ccccc1` – AC50: 1 µM [falling, full curve, poor fit]
`c1ccc(CN2CCC3(CCNCC3)CC2)cc1` – AC50: 25.1 µM [rising, single point]

Remaining list, next part

| SMILES | AC50 |
| --- | --- |
| CCC[C@@](C)(COC(N)=O)COC(=O)NC(C)C | 5.01 µM [falling, single point] |
| c1ccc([C@H]2CNCc3ccccc32)cc1 | 25.1 µM [falling, partial curve, poor fit] |
| O=P(/C(=N/O)N1CCCCC1)(N1CCOCC1)N1CCOCC1 | 25.1 µM [rising, single point] |
| CC(=NCCCN1CCOCC1)c1c(O)n(Cc2ccccc2)c(=O)[nH]c1=O | 0.01 µM [falling, full curve] |
| COc1cc2cc(c1Cl)N(C)C(=O)C[C@H](OC(=O)C(C)C)[C@]1(C)O[C@@H]1[C@@H](C)[C@H]1C[C@](O)(NC(=O)O1)[C@@H](OC)/C=C\C=C(\C)C2 | 0.0126 µM [rising, full curve] |
| N#CSCSC#N | 25.1 µM [falling, partial curve] |
| O=C(CCCN1CCC2(CC1)C(=O)NCN2c1ccccc1)c1ccc(F)cc1 | 31.6 µM [rising, single point] and 12.6 µM [rising, single point] |
| CCC(=NCc1cccnc1)c1c(O)n(C2CCCCC2)c(=O)[nH]c1=O | 12.6 µM [rising, single point] |
| C[N+]12CCC(CC1)C(C#N)(N1CCOCC1)C2 (stereo unspecified) | 20 µM [falling, partial curve] |
| COc1ccc(C(CC(=O)N2CCC3(CC2)OCCO3)NS(=O)(=O)c2ccc(OC)cc2)cc1 (stereo unspecified) | 12.6 µM [falling, partial curve, poor fit] |
| CC(C)Oc1cccnc1N(C)C1CCN(Cc2ccccc2)CC1 | 25.1 µM [falling, partial curve, poor fit] |
| O=C(Cl)C(Cl)(Cl)Cl | 12.6 µM [rising, single point] |
| Cc1ccccc1-n1c(O)c(C=Nc2ccc(N(C)C)cc2)c(=O)[nH]c1=O | 12.6 µM [rising, single point] |
| ClC1=C(Cl)C2(Cl)C3C4CC(C5OC45)C3C1(Cl)C2(Cl)Cl (stereo unspecified) | 12.6 µM [rising, single point] |
| C[C@H]1CCC[C@@H](O)CCC/C=C/c2cc(O)cc(O)c2C(=O)O1 | 5.01 µM [falling, single point] |
| COCCOC(=O)C1=C(N)Oc2c(c(=O)oc3ccccc23)C1c1ccncc1 (stereo unspecified) | 10 µM [rising, single point] |
| O=C(C(Cc1ccccc1)NS(=O)(=O)c1cccc2nsnc12)N1CCC2(CC1)OCCO2 (stereo unspecified) | 7.94 µM [falling, partial curve, poor fit] |
| CN1CCc2cc3c(cc2[C@@H]1O)OCO3 | 10 µM [rising, partial curve] |
| C=CCN1CC[C@@]23c4c5ccc(O)c4O[C@H]2/C(=N\N=C2/CC[C@@]4(O)[C@H]6Cc7ccc(O)c8c7[C@@]4(CCN6CC=C)[C@@H]2O8)CC[C@]3(O)[C@@H]1C5 | 31.6 µM [falling, single point] |
